Source: patent US5281581A, “Treatment of insulin resistance” (Amylin Pharmaceuticals, Inc., priority 1992, dated 1994)
“Also recorded” adds a separate entry of the source. Part of at least one peptide drawing is inferred or uncertain, most often the ends. Some compounds share one wording; it may come from a single statement. Where no end group is shown, it is not given here.

Tests used:
rat soleus muscle [1] = experiment: rate of glycolysis (lactate synthesis) in isolated rat soleus muscle; type: cell-based; conditions: amylin treated vs insulin-treated control; insulin 10 or 100 μU/mL
rat soleus muscle [2] = experiment: rate of glycogen synthesis (14C-glucose incorporation into glycogen) in isolated rat soleus muscle strips; conditions: for GLYCOGEN SYNTHESIS Mean Value, Average of Fractions 2 and 3: basal insulin 10 μU/ml

Molecule	rates of glycolysis, as indicated by the rates of lactate synthesis (in words) (rat soleus muscle [1])	Rltv Insulin Resist (rat soleus muscle [2]; Table 4 Experiment #1, insulin 100 μU/ml, amylin 0.2, antagonist 0) [%]	reduction of the insulin-stimulated rate of glycogen synthesis (rat soleus muscle [2]; amylin 2.0 nmol/L, isolated rat muscle) [%]	GLYCOGEN SYNTHESIS Mean Value, Average of Fractions 2 and 3 (rat soleus muscle [2]; amylin 0.4 nmol/L) [µmol/h/g]	GLYCOGEN SYNTHESIS Mean Value, Average of Fractions 2 and 3 (rat soleus muscle [2]; amylin 2.0 nmol/L) [µmol/h/g]	activity in reducing the incorporation of radioactive glucose into glycogen (in words) (rat soleus muscle [2]; isolated rat skeletal muscle in vitro, data not shown)
CC[C@H](C)[C@H](NC(=O)[C@H](C)NC(=O)CNC(=O)[C@H](Cc1ccccc1)NC(=O)[C@H](CC(N)=O)NC(=O)[C@H](CC(N)=O)NC(=O)[C@H](CO)NC(=O)[C@H](CO)NC(=O)[C@H](Cc1c[nH]cn1)NC(=O)[C@@H](NC(=O)[C@H](CC(C)C)NC(=O)[C@H](Cc1ccccc1)NC(=O)[C@H](CC(N)=O)NC(=O)[C@H](C)NC(=O)[C@H](CC(C)C)NC(=O)[C@H](CCCNC(=N)N)NC(=O)[C@H](CCC(N)=O)NC(=O)[C@@H](NC(=O)[C@H](C)NC(=O)[C@@H]1CSSC[C@H](NC(=O)[C@@H](N)CCCCN)C(=O)N[C@@H](CC(N)=O)C(=O)N[C@@H]([C@@H](C)O)C(=O)N[C@@H](C)C(=O)N[C@@H]([C@@H](C)O)C(=O)N1)[C@@H](C)O)C(C)C)C(=O)N[C@@H](CC(C)C)C(=O)N[C@@H](CO)C(=O)N[C@@H](CO)C(=O)N[C@H](C(=O)N[C@@H](CC(N)=O)C(=O)N[C@H](C(=O)NCC(=O)N[C@@H](CO)C(=O)N[C@@H](CC(N)=O)C(=O)N[C@H](C(=O)N[C@@H](Cc1ccc(O)cc1)C(N)=O)[C@@H](C)O)C(C)C)[C@@H](C)O [natural whole amylin, amylin]	not significantly different between groups	29	47	1.12	0.72	–
ATQRLANFLVHSSNNFGAILSSTNVGSNTY [subpeptide [5], Amylin 8-37]	–	–	–	–	–	significant activity was present; also recorded: reduced the incorporation of radioactive glucose into glycogen
